Patent US20250270328A1
Results are given in words; binding and its absence hold for the method and conditions named. Some results given as binding are weak or reduced against the parent protein; the word gives no strength.

Assays:
[1] = biological target: T1, cynomolgus KLRB1 expressed on CHO-K1 cells (CHO-cyno-KLRB1) (cynomolgus); assay: FACS on CHO-cyno-KLRB1 cells
T1 sequence: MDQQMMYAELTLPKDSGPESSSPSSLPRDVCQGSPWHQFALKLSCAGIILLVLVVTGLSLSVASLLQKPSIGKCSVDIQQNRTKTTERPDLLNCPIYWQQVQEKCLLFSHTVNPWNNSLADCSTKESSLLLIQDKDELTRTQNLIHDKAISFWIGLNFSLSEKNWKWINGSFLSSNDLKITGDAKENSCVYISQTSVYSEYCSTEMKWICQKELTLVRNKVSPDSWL

[2] = biological target: T1, cynomolgus KLRB1 expressed on CHO-K1 cells (CHO-cyno-KLRB1) (cynomolgus); assay: FACS on CHO-cyno-KLRB1 cells, concentration range up to 90 nM

B1: 10A3D6hum2.2 (antibody, human IgG1, kappa, V domains shown)
VH: QVQLVQSGAEVKKPGASVKVSCKASGYSFTGYTMNWVRQAPGQNLEWIGLINPNTGGTYYNQKFKDRVTLTVDTSISTAYMELSRLRSDDTAVYYCARLGDNYRGYFDSWGQGTTVTVSS
VL: DIQLTQSPSFLSASVGDRVTITCKASQDVGTAVVWYQQKPGKAPKLLIDWASIRHTGVPSRFSGSGSGTEFTLTISSLQPEDFADYFCQQYSTYLYTFGGGTKLEIKR
binding [1]: binds
binding [2]: binds
